Reference: patent US20130197032A1, “[…] COMPOUNDS FOR THE TREATMENT OF NEUROLOGICAL AND […] DISORDERS” (A. CARLSSON RESEARCH AB, priority 2010, published 2013)

Sequences of proteins named here, by UniProt entry; tags and fusion partners are left off.
UniProt P28223, whole entry: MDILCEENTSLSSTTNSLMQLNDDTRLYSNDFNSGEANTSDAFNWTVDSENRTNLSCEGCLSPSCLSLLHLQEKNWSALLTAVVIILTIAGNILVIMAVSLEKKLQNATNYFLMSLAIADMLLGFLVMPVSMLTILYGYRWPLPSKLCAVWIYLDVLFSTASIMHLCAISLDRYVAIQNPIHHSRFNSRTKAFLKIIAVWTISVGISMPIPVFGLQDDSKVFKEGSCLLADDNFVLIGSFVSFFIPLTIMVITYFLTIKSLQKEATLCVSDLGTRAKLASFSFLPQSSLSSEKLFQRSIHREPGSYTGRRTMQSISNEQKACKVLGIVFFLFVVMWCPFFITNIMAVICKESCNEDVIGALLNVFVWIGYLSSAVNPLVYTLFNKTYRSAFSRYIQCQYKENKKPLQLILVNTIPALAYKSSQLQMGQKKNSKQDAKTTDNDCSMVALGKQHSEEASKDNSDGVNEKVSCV

What was measured:
[1] = target: T1, human 5-HT2A receptors (Homo sapiens, UniProt P28223); assay: R-SAT functional assay at 5-HT2A; assay type: cell-based; parameters: expressed in transfected cells; host or cells: NIH-3T3; settings: R-SAT pEC50
[2] = target: T1, human 5-HT2A receptors; assay: BRET2 beta-arrestin-2 recruitment assay at 5-HT2A; assay type: cell-based; parameters: expressed in transfected cells; host or cells: HEK-293T

Work on `CCCN[C@H]1CCc2nc(N)sc2C1` [Pramipexole, (6S)—N^6-propyl-4,5,6,7-tetrahydro-1,3-benzothiazole-2,6-diamine] yielded an EC50 [1] of 1.26 µM and an EC50 [2] of 20 µM.
